For at least one entry, the source does not settle the construct or the ends of the probe.
Target: GST-p53 (Homo sapiens) (UniProt P04637)
Assay: binding assay
Conditions: N = 5-ethynyl-dU clicked (CuAAC) with benzyl-azide [26,28,35,56,57]; fluorescent Western-blot binding; stronger than starting library; TBST-MC (1 mM Mg, 1 mM Ca), dextran sulphate, click competitor, RT; purified recombinant protein; label: IRD800CW 5' (forward primer with C18 spacer); single-stranded DNA; letters built from the parent sequence and the stated change

Sequence: AGCCACGGAAGAACCAGAAACAAGATATACACGATGGGGGCACACCAAAGCACCGTTCGAAAGCAGAAGCGACAGCAACA [SEQ ID NO: 1 monoclone, benzyl-functionalized]
- binding result: binds

Source: US20210310004
